# Results from the supplement of paper PMC7858590.
# ± gives the standard deviation of the averaged measurements. The list shows a part of the results. Repeats in this data set agree poorly, so a single value says little.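 M-CSF-grown macrophages from blood monocytes pooled across four healthy donors, in an M1-like state, received compounds that had driven resting macrophages M2-like in a first screen. Each Z-score t-tests eccentricity of ~1000 cells per well against same-row DMSO wells. Compounds passing the +6 M2 cutoff, set by standard cytokine controls, count as reprogramming. M1 cutoff: −4.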
# Tested on: human monocyte-derived macrophages (polarized)
# Test: cell shape (eccentricity) Z-score vs DMSO control; macrophage state: M1-polarized (IFNg + TNFa), cytokines removed before treatment; higher = more elongated, M2-like morphology
# Conditions: 24 h
Structure (SMILES),cell shape (Z-score) (5 µM),cell shape (Z-score) (10 µM)
CC(C)C[C@H](NC(=O)CNC(=O)c1cc(Cl)ccc1Cl)B(O)O,8.83,6.76
CC1C(=O)C(=O)[C@@H]2O[C@@H]2C1=O (stereo not given in full),-0.105 ± 2.1,-2.64 ± 2.1
Nc1nc2ccc(OC(F)(F)F)cc2s1,2.97 ± 0.95,-4.04 ± 2.1
Oc1cccc(-c2nc(N3CCOCC3)c3oc4ncccc4c3n2)c1,-0.734 ± 3.4,-3.69 ± 2.3
CC(NCCC(c1ccccc1)c1ccccc1)c1ccccc1 (stereo not given),2.18 ± 7,-4.72 ± 5.3
C=C(c1ccc(C(=O)O)cc1)c1cc2c(cc1C)C(C)(C)CCC2(C)C,2.36 ± 0.81,-0.271 ± 6.9
Cc1cc(N2CCOCC2)cc2[nH]c(-c3c(NC[C@@H](O)c4cccc(Cl)c4)cc[nH]c3=O)nc12,-2.56 ± 15,-13.4 ± 0.78
O=c1cc(-c2ccc(O)cc2)oc2cc(O)cc(O)c12,1.09 ± 6.2,-0.12 ± 4.2
CC1=CC(=O)CC2C1(C)CCC(C)C2(C)CC/C(C)=C\C(=O)O (stereo not given),-6.76 ± 5.6,1.83 ± 4.3
Cc1c(-c2ccnc(Nc3ccc(N4CCNCC4)cc3)n2)sc(=O)n1C,-4.59 ± 2.1,-1.64 ± 3.1
O=C(OC1C=C(CO)C2C(OC3OC(CO)C(O)C(O)C3O)OC=CC12O)c1ccc(O)cc1 (stereo not given),1.02 ± 0.79,1.05 ± 0.75
O=Nc1c(-c2c(O)[nH]c3cc(Br)ccc23)[nH]c2ccccc12,-5.06 ± 9.8,-6.93 ± 6
Nc1nc(N)c2nc(-c3cccc(O)c3)c(-c3cccc(O)c3)nc2n1,-0.796 ± 2.9,-0.169 ± 5.1
COC(=O)C(CCCN=C(N)N)NC(=O)CCCc1c(-c2ccccc2)[nH]c2c(F)cc(F)cc12 (stereo not given),-1.74 ± 4.9,-1.34 ± 3.3
CCCCCCOc1ccccc1C(N)=O,2.23 ± 6,-2.45 ± 5.9
CC1(C)CCC(c2ccc(Cl)cc2)=C(CN2CCN(c3ccc(C(=O)NS(=O)(=O)c4ccc(N[C@H](CCN5CCOCC5)CSc5ccccc5)c(S(=O)(=O)C(F)(F)F)c4)cc3)CC2)C1,1.88 ± 0.2,0.418 ± 1.1
COc1cccc2c1C(=O)c1c(O)c3c(c(O)c1C2=O)C[C@@](O)(C(C)=O)C[C@@H]3O[C@H]1C[C@H](N)[C@H](O)[C@H](C)O1,-1.45 ± 3.3,0.938 ± 2.5
C(=N\NC1=NCCN1)/c1c2ccccc2c(/C=N/NC2=NCCN2)c2ccccc12,11.6,10.7 ± 2.7
O=C(/C=C/c1cccc(S(=O)(=O)Nc2ccccc2)c1)NO,-0.151 ± 0.12,-2.18 ± 3.1
CC1CNCCN1S(=O)(=O)c1cccc2cnccc12 (stereo not given),-3.89 ± 1.3,0.656 ± 2

# Some of the entries so far, bar-delimited.
Structure (SMILES) | cell shape (Z-score) (5 µM) | cell shape (Z-score) (10 µM)
CC1C(=O)C(=O)[C@@H]2O[C@@H]2C1=O (stereo not given in full) | -0.105 ± 2.1 | -2.64 ± 2.1
Nc1nc2ccc(OC(F)(F)F)cc2s1 | 2.97 ± 0.95 | -4.04 ± 2.1
